Data as given in the supplement of paper PMC4604168 (melanoma cell lines).
Some of the results follow. Many values rest on one well or one pass, so single values are uncertain.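 The apoptosis fraction was the count of cleaved-PARP antibody-stained nuclei relative to all DNA-stained nuclei, imaged in 1,536-well plates. Screening doses were set so most cells survived, and baseline and induced cleaved-PARP levels vary greatly across cell lines.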

System: SkMel28
Assay: cleaved PARP positive nuclei fraction relative to DMSO control; melanoma cells; higher = more apoptosis
Conditions: library dose: low library concentration; 72 h

SMILES	cleaved PARP positive nuclei fraction
C[C@@H](Oc1cc(-c2cnn(C3CCNCC3)c2)cnc1N)c1c(Cl)ccc(F)c1Cl [Crizotinib] + CCN(CC)CCCCNc1ncc2cc(-c3cc(OC)cc(OC)c3)c(NC(=O)NC(C)(C)C)nc2n1 [PD173074] (first compound 0.2 µM, partner dose 0.1 µM)	147%
Nc1ncn([C@H]2C[C@H](O)[C@@H](CO)O2)c(=O)n1 [decitabine] + O=c1cc(-c2cccc3c2Sc2ccccc2S3)oc(N2CCOCC2)c1 [KU55933] (first compound 0.1 µM, partner dose 1 µM)	146%
O=C(O)c1ccc2c(c1)nc(Nc1cccc(Cl)c1)c1ccncc12 + O=C(O)c1ccc(-c2c[nH]c3ncc(-c4ccccc4)cc23)cc1C1CCCC1 [GSK650394] (first compound 0.4 µM, partner dose 0.16 µM)	30.5%
Cc1cc(Nc2cc(N3CCN(C)CC3)nc(/C=C/c3ccccc3)n2)n[nH]1 + C=CCn1c(=O)c2cnc(Nc3ccc(N4CCN(C)CC4)cc3)nc2n1-c1cccc(C(C)(C)O)n1 [MK1775] (first compound 0.04 µM, partner dose 0.02 µM)	306%
Nc1ccn([C@@H]2O[C@H](CO)[C@@H](O)C2(F)F)c(=O)n1 [gemcitabine] + O=C(Nc1cccc(Cl)c1)Nc1ncc(CCNc2ncnc3ccsc23)s1 [SNS314] (first compound 0.0004 µM, partner dose 0.0008 µM)	230%
C[C@@H](Oc1cc(-c2cnn(C3CCNCC3)c2)cnc1N)c1c(Cl)ccc(F)c1Cl [Crizotinib] + CO[C@@H]1[C@H](N(C)C(=O)c2ccccc2)C[C@H]2O[C@]1(C)n1c3ccccc3c3c4c(c5c6ccccc6n2c5c31)C(=O)NC4 [Midostaurin] (first compound 0.2 µM, partner dose 0.08 µM)	171%
CC(C)C[C@H](NC(=O)[C@H](Cc1ccccc1)NC(=O)c1cnccn1)B(O)O [Bortezomib] + COc1ccc2c(c1)CCC1C2CCC2(C)C(NCCCCCCN3C(=O)C=CC3=O)CCC12 [U73122] (first compound 0.001 µM, partner dose 0.4 µM)	160%
Nc1ccn([C@@H]2O[C@H](CO)[C@@H](O)C2(F)F)c(=O)n1 [gemcitabine] + OCCn1cc(-c2cnc3nnn(Cc4ccc5ncccc5c4)c3n2)cn1 [PF04217903] (first compound 0.0004 µM, partner dose 1 µM)	60.3%
CNC(=O)c1cc(Oc2ccc(NC(=O)Nc3ccc(Cl)c(C(F)(F)F)c3)cc2)ccn1 [sorafenib] + CO[C@@H]1[C@H](N(C)C(=O)c2ccccc2)C[C@H]2O[C@]1(C)n1c3ccccc3c3c4c(c5c6ccccc6n2c5c31)C(=O)NC4 [Midostaurin] (first compound 0.4 µM, partner dose 0.08 µM)	352%
O=C(O)[C@@H]1[O][Sb](=[O])([O][Sb]2(=[O])[O][C@H]([C@H](O)CO)[C@H](O)[C@H](C(=O)O)[O]2)[O][C@H]([C@H](O)CO)[C@@H]1O (some centres undefined) [stibogluconate] + Cc1ccc(NC(=O)c2cccc(N(C)C)c2)cc1NC(=O)c1ccc(O)cc1 [ZM336372] (first compound 2 µM, partner dose 2 µM)	197%
CN1CCN(c2ccc3nc(-c4c(N)c5c(F)cccc5[nH]c4=O)[nH]c3c2)CC1 [Dovitinib] + COc1cc2c(Oc3ccc4[nH]c(C)cc4c3F)ncnc2cc1OCCCN1CCCC1 [cediranib] (first compound 0.1 µM, partner dose 0.4 µM)	67.1%
CC(C)C[C@H](NC(=O)[C@H](Cc1ccccc1)NC(=O)c1cnccn1)B(O)O [Bortezomib] + CC(C)CCN1c2nc(Nc3cc(F)c(O)c(F)c3)ncc2N(C)C(=O)C1C [BID1870] (first compound 0.001 µM, partner dose 0.2 µM)	105%
O=C(O)c1ccc2c(c1)nc(Nc1cccc(Cl)c1)c1ccncc12 + NCC(=O)Nc1ccc(-n2nc(C(F)(F)F)cc2-c2ccc3c(ccc4ccccc43)c2)cc1 [OSU03012] (first compound 0.4 µM, partner dose 1 µM)	115%
Nc1ncn([C@H]2C[C@H](O)[C@@H](CO)O2)c(=O)n1 [decitabine] + Cn1cc(/C=C2\C(=O)Nc3cccnc32)c2ccccc21 [GW441756] (first compound 0.1 µM, partner dose 0.4 µM)	69.1%

Two entries picked at random from those above:
SMILES	cleaved PARP positive nuclei fraction
CN1CCN(c2ccc3nc(-c4c(N)c5c(F)cccc5[nH]c4=O)[nH]c3c2)CC1 [Dovitinib] + COc1cc2c(Oc3ccc4[nH]c(C)cc4c3F)ncnc2cc1OCCCN1CCCC1 [cediranib] (first compound 0.1 µM, partner dose 0.4 µM)	67.1%
C[C@@H](Oc1cc(-c2cnn(C3CCNCC3)c2)cnc1N)c1c(Cl)ccc(F)c1Cl [Crizotinib] + CO[C@@H]1[C@H](N(C)C(=O)c2ccccc2)C[C@H]2O[C@]1(C)n1c3ccccc3c3c4c(c5c6ccccc6n2c5c31)C(=O)NC4 [Midostaurin] (first compound 0.2 µM, partner dose 0.08 µM)	171%
